Values from PubChem BioAssay AID1259254 (NCATS, 2017).
Purpose: 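Gene knock-downs that lead to re-replication, shown by excess G2 DNA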 (primary screen). Cell system: human HCT116 colorectal cancer cells. Reagents: single siRNA against human genes. Time to read-out: 3 days. Measured: 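Nuclei stained with Hoechst and imaged; cell-cycle phase assigned by DNA content; G2 share scaled per plate, non-targeting siRNA 0%, GMNN siRNA 100%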. Direction: G2 robust z-score: higher = more G2 cells, more excess DNA replication. Hit rule: 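An siRNA counts as active if its G2 robust z-score lies at least 5 MADs above the screen median; here such calls match roughly 38% of GMNN control or more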.
The whole screen tested about 59,000 reagents; shown is a random part of them. About 1,550 of all reagents (2.6%) count as active. 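G2 share is only a proxy for re-replication; each gene was hit by three separate siRNAs, and active genes were retested.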 Entries without a mark were called inactive. Reagents against one gene are numbered here. Further read-outs or replicates are left out here. Reagent sequences are not shown. Not stated in the record: the amount of reagent.

AVPR1B #1 → G2 robust z-score: 0.374
AVPR1B #2 → G2 robust z-score: 5.33 (active)
AVPR1B #3 → G2 robust z-score: 0.267
RNF216 #1 → G2 robust z-score: 4.14
RNF216 #2 → G2 robust z-score: -0.753
RNF216 #3 → G2 robust z-score: 1.01
HSPB6 #1 → G2 robust z-score: -0.512
HSPB6 #2 → G2 robust z-score: 1.88
HSPB6 #3 → G2 robust z-score: -0.605
RNFT2 #1 → G2 robust z-score: -0.00161
RNFT2 #2 → G2 robust z-score: -0.369
RNFT2 #3 → G2 robust z-score: 2.18
HNRNPD #1 → G2 robust z-score: -0.635
HNRNPD #2 → G2 robust z-score: 4.75
HNRNPD #3 → G2 robust z-score: 3.03
TTC33 #1 → G2 robust z-score: -0.382
TTC33 #2 → G2 robust z-score: -0.448
TTC33 #3 → G2 robust z-score: -0.665
GNAQ #1 → G2 robust z-score: 0.0272
GNAQ #2 → G2 robust z-score: -0.356
GNAQ #3 → G2 robust z-score: 2.04
LEFTY2 #1 → G2 robust z-score: 0.448
LEFTY2 #2 → G2 robust z-score: -0.642
LEFTY2 #3 → G2 robust z-score: 0.615
